# The list shows a part of the results. Most entries show no effect beyond the scatter of the controls.
# Amino acid sequences for entries named in this document (tags omitted). A change or cut given only in a name is not applied to a line headed by its entry.
# UniProt Q9H4L7: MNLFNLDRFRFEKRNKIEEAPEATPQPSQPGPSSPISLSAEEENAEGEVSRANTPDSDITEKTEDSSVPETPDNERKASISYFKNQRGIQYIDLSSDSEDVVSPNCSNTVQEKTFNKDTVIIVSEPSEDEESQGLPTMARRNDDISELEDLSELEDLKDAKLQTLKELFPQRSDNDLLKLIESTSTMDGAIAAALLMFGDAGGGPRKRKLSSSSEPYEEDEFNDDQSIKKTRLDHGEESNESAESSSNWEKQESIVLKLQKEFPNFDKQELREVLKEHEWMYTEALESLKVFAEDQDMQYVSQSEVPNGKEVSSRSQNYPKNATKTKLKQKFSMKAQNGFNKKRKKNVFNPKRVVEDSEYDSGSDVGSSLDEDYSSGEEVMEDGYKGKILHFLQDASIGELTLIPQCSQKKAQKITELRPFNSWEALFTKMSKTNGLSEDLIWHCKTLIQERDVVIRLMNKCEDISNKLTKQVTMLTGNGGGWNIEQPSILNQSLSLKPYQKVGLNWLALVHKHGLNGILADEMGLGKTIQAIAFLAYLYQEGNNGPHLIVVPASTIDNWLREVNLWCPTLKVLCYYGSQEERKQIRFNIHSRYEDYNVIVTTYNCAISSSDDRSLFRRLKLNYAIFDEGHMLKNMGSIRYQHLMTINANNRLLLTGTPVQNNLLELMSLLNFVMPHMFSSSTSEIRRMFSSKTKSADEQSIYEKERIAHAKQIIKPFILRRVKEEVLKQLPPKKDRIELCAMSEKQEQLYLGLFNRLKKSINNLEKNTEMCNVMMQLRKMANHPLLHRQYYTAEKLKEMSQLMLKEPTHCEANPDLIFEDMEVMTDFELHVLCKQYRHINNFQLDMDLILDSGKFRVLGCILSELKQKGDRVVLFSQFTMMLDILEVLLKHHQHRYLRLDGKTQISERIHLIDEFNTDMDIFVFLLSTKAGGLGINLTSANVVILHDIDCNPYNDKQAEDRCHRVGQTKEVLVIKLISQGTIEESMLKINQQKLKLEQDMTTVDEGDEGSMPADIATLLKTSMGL
# UniProt Q9H9A7: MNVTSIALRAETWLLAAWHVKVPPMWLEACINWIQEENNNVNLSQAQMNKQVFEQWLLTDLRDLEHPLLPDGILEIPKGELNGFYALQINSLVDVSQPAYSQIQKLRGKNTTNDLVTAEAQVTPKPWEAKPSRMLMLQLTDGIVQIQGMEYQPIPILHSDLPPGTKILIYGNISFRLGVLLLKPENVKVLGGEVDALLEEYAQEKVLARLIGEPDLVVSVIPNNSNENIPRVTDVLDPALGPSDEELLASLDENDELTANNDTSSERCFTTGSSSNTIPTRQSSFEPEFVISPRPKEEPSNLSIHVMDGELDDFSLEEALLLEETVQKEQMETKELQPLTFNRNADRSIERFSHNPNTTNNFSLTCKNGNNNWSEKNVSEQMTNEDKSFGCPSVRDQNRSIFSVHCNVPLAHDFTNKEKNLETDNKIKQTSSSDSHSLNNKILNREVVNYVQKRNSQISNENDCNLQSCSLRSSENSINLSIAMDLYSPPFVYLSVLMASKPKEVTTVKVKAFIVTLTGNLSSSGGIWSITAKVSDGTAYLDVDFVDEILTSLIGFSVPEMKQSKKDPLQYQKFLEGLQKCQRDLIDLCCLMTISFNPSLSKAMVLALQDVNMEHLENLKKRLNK
# UniProt Q9H3P2, whole entry: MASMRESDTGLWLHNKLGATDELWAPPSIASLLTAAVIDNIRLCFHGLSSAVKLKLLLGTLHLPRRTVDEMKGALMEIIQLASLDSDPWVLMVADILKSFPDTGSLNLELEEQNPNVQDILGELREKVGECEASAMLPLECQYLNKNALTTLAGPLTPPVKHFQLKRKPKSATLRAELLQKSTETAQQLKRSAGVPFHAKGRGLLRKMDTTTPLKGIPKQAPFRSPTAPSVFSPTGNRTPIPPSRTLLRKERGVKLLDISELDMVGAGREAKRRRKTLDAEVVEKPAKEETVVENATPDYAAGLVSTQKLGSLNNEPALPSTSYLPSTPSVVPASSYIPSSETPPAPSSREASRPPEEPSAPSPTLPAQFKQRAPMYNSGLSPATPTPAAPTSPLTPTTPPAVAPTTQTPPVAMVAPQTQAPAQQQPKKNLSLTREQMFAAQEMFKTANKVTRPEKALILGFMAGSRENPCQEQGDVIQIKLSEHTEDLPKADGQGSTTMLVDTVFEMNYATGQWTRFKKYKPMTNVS
# UniProt Q9HCD5: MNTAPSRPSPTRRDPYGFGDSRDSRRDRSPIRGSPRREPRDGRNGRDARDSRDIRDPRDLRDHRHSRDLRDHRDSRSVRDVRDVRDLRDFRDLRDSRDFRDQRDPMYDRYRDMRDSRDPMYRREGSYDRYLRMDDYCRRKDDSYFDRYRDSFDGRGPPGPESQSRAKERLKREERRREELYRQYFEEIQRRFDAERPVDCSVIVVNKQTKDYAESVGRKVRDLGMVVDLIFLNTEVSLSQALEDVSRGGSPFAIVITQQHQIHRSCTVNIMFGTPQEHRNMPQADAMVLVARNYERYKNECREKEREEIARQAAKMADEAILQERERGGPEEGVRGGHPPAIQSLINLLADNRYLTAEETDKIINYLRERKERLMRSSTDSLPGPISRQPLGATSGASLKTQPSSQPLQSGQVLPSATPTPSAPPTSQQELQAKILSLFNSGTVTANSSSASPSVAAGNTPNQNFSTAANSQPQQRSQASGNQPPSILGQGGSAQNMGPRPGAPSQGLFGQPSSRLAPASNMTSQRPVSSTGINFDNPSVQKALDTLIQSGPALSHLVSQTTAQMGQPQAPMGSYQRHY
# UniProt Q9HAD4: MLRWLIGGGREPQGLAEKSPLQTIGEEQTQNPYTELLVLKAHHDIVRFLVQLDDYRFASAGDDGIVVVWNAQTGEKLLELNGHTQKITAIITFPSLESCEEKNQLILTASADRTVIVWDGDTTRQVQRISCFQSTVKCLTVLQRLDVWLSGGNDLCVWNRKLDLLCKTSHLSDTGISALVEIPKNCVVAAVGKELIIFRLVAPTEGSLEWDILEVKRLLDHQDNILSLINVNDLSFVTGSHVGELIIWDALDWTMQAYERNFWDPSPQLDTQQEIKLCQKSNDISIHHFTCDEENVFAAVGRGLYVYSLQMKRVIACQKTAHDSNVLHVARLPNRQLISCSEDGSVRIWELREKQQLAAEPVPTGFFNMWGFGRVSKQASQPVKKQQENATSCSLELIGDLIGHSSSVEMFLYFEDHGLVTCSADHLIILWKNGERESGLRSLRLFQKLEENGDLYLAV
# UniProt Q9H4M9: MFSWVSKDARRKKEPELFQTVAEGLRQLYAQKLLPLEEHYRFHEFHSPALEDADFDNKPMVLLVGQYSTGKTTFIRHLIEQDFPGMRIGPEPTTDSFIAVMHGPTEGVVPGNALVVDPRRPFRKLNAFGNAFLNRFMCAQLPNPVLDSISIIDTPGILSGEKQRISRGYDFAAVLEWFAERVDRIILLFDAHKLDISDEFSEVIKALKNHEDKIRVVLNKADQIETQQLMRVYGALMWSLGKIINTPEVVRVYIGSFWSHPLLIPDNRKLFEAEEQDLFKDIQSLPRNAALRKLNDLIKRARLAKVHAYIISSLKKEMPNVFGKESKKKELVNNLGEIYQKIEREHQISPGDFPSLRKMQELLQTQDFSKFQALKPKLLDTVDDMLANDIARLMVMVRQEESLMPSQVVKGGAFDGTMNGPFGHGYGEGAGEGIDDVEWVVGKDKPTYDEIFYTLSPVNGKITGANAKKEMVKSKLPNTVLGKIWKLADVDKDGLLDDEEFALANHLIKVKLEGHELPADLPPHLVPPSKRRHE
# UniProt Q9H2P9: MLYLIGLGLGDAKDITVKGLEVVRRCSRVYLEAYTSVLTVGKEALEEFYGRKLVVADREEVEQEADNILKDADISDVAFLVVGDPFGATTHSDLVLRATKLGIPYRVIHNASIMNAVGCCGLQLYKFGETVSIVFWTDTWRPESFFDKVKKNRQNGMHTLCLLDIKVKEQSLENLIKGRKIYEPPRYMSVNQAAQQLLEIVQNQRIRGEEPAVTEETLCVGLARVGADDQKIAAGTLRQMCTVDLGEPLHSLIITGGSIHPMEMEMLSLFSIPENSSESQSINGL
# UniProt Q9H2J4: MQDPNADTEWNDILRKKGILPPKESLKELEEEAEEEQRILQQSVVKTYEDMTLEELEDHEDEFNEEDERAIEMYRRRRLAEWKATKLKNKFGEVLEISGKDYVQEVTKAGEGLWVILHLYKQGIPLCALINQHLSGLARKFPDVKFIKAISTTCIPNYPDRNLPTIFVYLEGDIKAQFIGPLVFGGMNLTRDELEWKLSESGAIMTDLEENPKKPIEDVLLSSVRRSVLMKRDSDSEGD
# Compound: Cc1nc(Nc2ncc(C(=O)Nc3c(C)cccc3Cl)s2)cc(N2CCN(CCO)CC2)n1 [dasatinib]
# Assay: log2 fold change of tryptic peptide abundance, ligand vs vehicle (limited proteolysis) (log2 ratio); higher = more trypsin-susceptible (destabilized)
# Conditions: ligand concentration: 5 uM; sample: K562 cleared lysate
row,Target,log2 fold change
1,"SMARCAD1 (peptide sequence: VLGCILSELK, peptide start residue: 858) (UniProt Q9H4L7)",-0.23
2,"RMI1 (peptide sequence: QSSFEPEFVISPRPK, peptide start residue: 282) (UniProt Q9H9A7)",-0.219
3,"UniProt Q9H3P2 (peptide sequence: YKPMTNVS, peptide start residue: 521)",0.159
4,"NCOA5 (peptide sequence: DDSYFDRYR, peptide start residue: 141) (UniProt Q9HCD5)",-0.568
5,"WDR41 (peptide sequence: WLIGGGREPQGLAEK, peptide start residue: 4) (UniProt Q9HAD4)",-0.417
6,"EHD1 (peptide sequence: EMPNVFGKESK, peptide start residue: 317) (UniProt Q9H4M9)",0.298
7,"DPH5 (peptide sequence: QNGMHTLCLLDIK, peptide start residue: 154) (UniProt Q9H2P9)",-0.804
8,"UniProt Q9H9G7 (peptide sequence: SFFSAPEGYDHPLGGGR, peptide start residue: 181)",-0.0438
9,"PDCL3 (peptide sequence: DYVQEVTK, peptide start residue: 101) (UniProt Q9H2J4)",-0.126

# As entered above.
# Under log2 fold change, RMI1 (peptide sequence: QSSFEPEFVISPRPK, peptide start residue: 282) (UniProt Q9H9A7) has -0.219
# Under log2 fold change, UniProt Q9H9G7 (peptide sequence: SFFSAPEGYDHPLGGGR, peptide start residue: 181) has -0.0438
